Measured values as given in PMC13437097.
Results are given in words; binding and its absence hold for the method and conditions named. Binding seen in cells or lysates may run through a third protein. Some results given as binding are weak or reduced against the parent protein; the word gives no strength.

Protein sequences, listed by entry. Tags and fused reporters are not part of them.
UniProt Q9Z1E3: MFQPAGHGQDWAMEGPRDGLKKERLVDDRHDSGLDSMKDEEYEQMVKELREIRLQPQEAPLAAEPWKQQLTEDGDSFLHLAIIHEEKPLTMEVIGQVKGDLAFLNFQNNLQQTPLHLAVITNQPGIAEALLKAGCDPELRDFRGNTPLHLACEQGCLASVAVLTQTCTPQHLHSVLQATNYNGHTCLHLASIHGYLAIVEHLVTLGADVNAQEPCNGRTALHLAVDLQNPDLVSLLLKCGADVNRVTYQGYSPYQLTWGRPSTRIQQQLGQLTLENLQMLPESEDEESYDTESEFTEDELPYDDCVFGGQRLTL

How the values were obtained:
[1] = molecular target: IκBα (mouse (endogenous in mouse VSMCs)) (UniProt Q9Z1E3); assay: co-IP; endogenous proteins; PDGFBB/SCAPi-treated VSMCs lysed in Nonidet P40 buffer, IP antibody on protein A/G magnetic beads or agarose overnight at 4°C, western blot
[2] = molecular target: T1, SREBP cleavage-activating protein (SCAP) (mouse (endogenous in mouse VSMCs)) (UniProt Q6GQT6); assay: as above
T1 sequence: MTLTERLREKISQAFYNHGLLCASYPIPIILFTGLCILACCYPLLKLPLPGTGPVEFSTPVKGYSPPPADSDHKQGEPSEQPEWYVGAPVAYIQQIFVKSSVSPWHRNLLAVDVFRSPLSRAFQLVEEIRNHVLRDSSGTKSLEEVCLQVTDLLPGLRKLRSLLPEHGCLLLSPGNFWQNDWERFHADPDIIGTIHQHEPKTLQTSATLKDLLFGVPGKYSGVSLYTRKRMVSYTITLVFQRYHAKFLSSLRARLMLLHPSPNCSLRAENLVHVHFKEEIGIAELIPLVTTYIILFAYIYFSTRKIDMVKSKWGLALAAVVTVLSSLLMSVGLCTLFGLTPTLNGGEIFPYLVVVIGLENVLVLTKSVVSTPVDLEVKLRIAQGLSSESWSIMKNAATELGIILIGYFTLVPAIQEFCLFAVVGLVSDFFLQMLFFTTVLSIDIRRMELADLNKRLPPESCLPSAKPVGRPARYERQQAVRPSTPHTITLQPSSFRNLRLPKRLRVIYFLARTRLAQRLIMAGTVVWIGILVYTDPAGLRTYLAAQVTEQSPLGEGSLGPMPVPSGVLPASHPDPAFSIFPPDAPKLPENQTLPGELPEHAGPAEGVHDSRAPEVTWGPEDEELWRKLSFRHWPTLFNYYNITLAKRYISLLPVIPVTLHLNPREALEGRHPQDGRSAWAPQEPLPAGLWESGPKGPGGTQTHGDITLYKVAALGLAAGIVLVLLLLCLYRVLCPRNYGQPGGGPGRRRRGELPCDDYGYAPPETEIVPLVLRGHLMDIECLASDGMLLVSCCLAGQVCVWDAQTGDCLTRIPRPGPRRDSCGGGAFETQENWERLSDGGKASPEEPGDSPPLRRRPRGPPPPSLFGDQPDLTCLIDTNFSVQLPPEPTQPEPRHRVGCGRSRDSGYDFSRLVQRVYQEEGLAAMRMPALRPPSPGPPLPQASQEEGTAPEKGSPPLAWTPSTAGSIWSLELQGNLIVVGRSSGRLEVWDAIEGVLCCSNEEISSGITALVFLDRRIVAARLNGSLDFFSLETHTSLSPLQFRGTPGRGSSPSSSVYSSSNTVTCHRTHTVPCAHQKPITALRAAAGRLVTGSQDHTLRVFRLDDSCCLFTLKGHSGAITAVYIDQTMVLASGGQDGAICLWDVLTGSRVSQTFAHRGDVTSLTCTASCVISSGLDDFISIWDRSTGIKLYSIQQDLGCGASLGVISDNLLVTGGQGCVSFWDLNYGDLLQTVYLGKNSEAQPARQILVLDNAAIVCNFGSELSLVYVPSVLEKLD

[3] = molecular target: IκBα (mouse (endogenous in mouse VSMCs)) (UniProt Q9Z1E3); assay: proximity ligation; Duolink PLA on fixed, permeabilised VSMCs (with or without PDGFBB), primary antibodies 4°C 8-12 h
[4] = molecular target: T1, SREBP cleavage-activating protein (SCAP) (mouse (endogenous in mouse VSMCs)); assay: as above

Measured: binding

B1: Tripartite motif containing 27 (Trim27) (protein, UniProt Q62158 1-513)
chain: MASGSVAECLQQETTCPVCLQYFVEPMMLDCGHNICCACLARCWGAAETNVSCPQCRETFPQRHMRPNRHLANVTQLVKQLRTERPSGPGGEMGVCEKHREPLKLYCEQDQMPICVVCDRSREHRGHSVLPLEEAVEGFKEQIQNRLDHLRRVKDLKKRRRAQGEQARAELLSLTQMEREKIVWEFEQLYHSLKEHEYRLLARLEELDLAIYNSINGAITQFSCNISHLSGLIAQLEEKQQQPTRELLQDIGDTLSRAERIRIPEPWITPPDLQEKIHIFAQKCLFLTESLKQFTEKMQSDMEKIQELREAQLYSVDVTLDPDTAYPSLILSDNLRQVRYSYLQQDLPDNPERFNLFPCVLGSPCFIAGRHYWEVEVGDKAKWTIGVCEDSVCRKGGVTSAPQNGFWAVSLWYGKEYWALTSPMTALPLRTPLQRVGIFLDYDAGEVSFYNVTERCHTFTFSHATFCGPVRPYFSLSYSGGKSAAPLIICPMSGIDGFSGHVGNHGHSMETSP
binds: all assays above
